# From the supplement of paper PMC4604168 (melanoma cell lines)
# This is one part of the list. Repeats are few or missing, and single values can be far off.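 Cells were imaged in 1,536-well plates, and nuclei stained with an antibody against cleaved PARP were counted against all DNA-stained nuclei to give the apoptosis fraction. Screening doses were chosen to leave most cells alive, and resting and induced cleaved-PARP levels differ strongly between cell lines.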
# What was measured:
# Experiment in all cases: cleaved PARP positive nuclei fraction relative to DMSO control; melanoma cells; higher = more apoptosis
# Conditions in all cases: library dose: low library concentration; 72 h
# [1] = test system: WM115
# [2] = test system: WM1716
# [3] = test system: WM1745
# [4] = test system: WM3526
# [5] = test system: WM3619
# [6] = test system: WM451Lu
Compound,cleaved PARP positive nuclei fraction [1],cleaved PARP positive nuclei fraction [2],cleaved PARP positive nuclei fraction [3],cleaved PARP positive nuclei fraction [4],cleaved PARP positive nuclei fraction [5],cleaved PARP positive nuclei fraction [6]
"CC(C)(C)c1cnc(CSc2cnc(NC(=O)C3CCNCC3)s2)o1 + N#Cc1c(O)c2c(-c3ccc(-c4ccccc4O)cc3)csc2[nH]c1=O [A769662] (first compound 0.01 µM, partner dose 2 µM)",127%,99.2%,95.5%,181%,75.2%,115%
"COc1cc(Nc2ncc(F)c(Nc3ccc4c(n3)NC(=O)C(C)(C)O4)n2)cc(OC)c1OC [Tamatinib] + CCN(CC)CCCCNc1ncc2cc(-c3cc(OC)cc(OC)c3)c(NC(=O)NC(C)(C)C)nc2n1 [PD173074] (first compound 0.4 µM, partner dose 0.1 µM)",142%,85.5%,154%,42.6%,106%,99.7%
"CC(=O)c1c(C)c2cnc(Nc3ccc(N4CCNCC4)cn3)nc2n(C2CCCC2)c1=O [palbociclib] + CCCCCCCCCCCC1=C(O)C(=O)C=C(O)C1=O [Embelin] (first compound 0.04 µM, partner dose 1.2 µM)",68.4%,82.5%,145%,105%,138%,159%
"C=CCNC1=C2C[C@@H](C)C[C@H](OC)[C@H](O)[C@@H](C)/C=C(\C)[C@H](OC(N)=O)[C@@H](OC)/C=C\C=C(/C)C(=O)NC(=CC1=O)C2=O [Tanespimycin] + OCCn1cc(-c2cnc3nnn(Cc4ccc5ncccc5c4)c3n2)cn1 [PF04217903] (first compound 0.002 µM, partner dose 1 µM)",34.9%,82.7%,103%,64.5%,108%,119%
"Cn1nnc2c(C(N)=O)ncn2c1=O [temozolomide] + COc1ccc(COc2ccc(Cc3cnc(N)nc3N)cc2OC)cc1 [GW2580] (first compound 2 µM, partner dose 1 µM)",132%,214%,110%,65.4%,82.6%,144%
"CC1(C)NC(=O)N(c2ccc([N+](=O)[O-])c(C(F)(F)F)c2)C1=O [nilutamide] + CCN(CC)CCCCNc1ncc2cc(-c3cc(OC)cc(OC)c3)c(NC(=O)NC(C)(C)C)nc2n1 [PD173074] (first compound 1 µM, partner dose 0.1 µM)",72.1%,71.1%,88.5%,118%,67.7%,50.8%
"COc1cc(Nc2ncc(F)c(Nc3ccc4c(n3)NC(=O)C(C)(C)O4)n2)cc(OC)c1OC [Tamatinib] + COc1ccc(-c2ccc3c(N4CCOCC4)nc(N4C[C@@H](C)O[C@@H](C)C4)nc3n2)cc1CO [KU0063794] (first compound 0.4 µM, partner dose 0.02 µM)",200%,76.8%,150%,83.8%,195%,143%
"O=C(Nc1cccc(Cl)c1)Nc1ncc(CCNc2ncnc3ccsc23)s1 + CCN(CC)CCCCNc1ncc2cc(-c3cc(OC)cc(OC)c3)c(NC(=O)NC(C)(C)C)nc2n1 [PD173074] (first compound 0.0008 µM, partner dose 0.1 µM)",54%,25.4%,136%,61.6%,79.5%,76.7%
"OCCn1cc(-c2cnc3nnn(Cc4ccc5ncccc5c4)c3n2)cn1 + c1cc(-c2cnn3cc(-c4ccc(OCCN5CCCCC5)cc4)cnc23)ccn1 [Dorsomorphin] (first compound 1 µM, partner dose 0.4 µM)",73.3%,93.3%,110%,126%,75.7%,54%
"C#Cc1cccc(Nc2ncnc3cc(OCCOC)c(OCCOC)cc23)c1 [erlotinib] + COCC[n+]1c2c(n(Cc3cnccn3)c1C)C(=O)c1ccccc1C2=O [YM155] (first compound 0.8 µM, partner dose 0.0004 µM)",106%,121%,120%,298%,108%,59.5%
"Cc1nc(Nc2ncc(C(=O)Nc3c(C)cccc3Cl)s2)cc(N2CCN(CCO)CC2)n1 [dasatanib] + CO[C@@H]1[C@H](N(C)C(=O)c2ccccc2)C[C@H]2O[C@]1(C)n1c3ccccc3c3c4c(c5c6ccccc6n2c5c31)C(=O)NC4 [Midostaurin] (first compound 0.004 µM, partner dose 0.08 µM)",229%,436%,176%,51.9%,128%,121%
"OCCn1cc(-c2cnc3nnn(Cc4ccc5ncccc5c4)c3n2)cn1 + CCN(CC)CCCCNc1ncc2cc(-c3cc(OC)cc(OC)c3)c(NC(=O)NC(C)(C)C)nc2n1 [PD173074] (first compound 1 µM, partner dose 0.1 µM)",63.4%,98.1%,114%,133%,71.2%,110%
"Clc1ccc(Nc2nnc(Cc3ccncc3)c3ccccc23)cc1 [vatalanib] + O=C1NC(=O)/C(=C/c2ccc(-c3ccc(F)cc3O)o2)S1 [AS252424] (first compound 2 µM, partner dose 1 µM)",159%,36.8%,117%,70.9%,103%,61.8%
"O=C(CCCCCCC(=O)Nc1ccccc1)NO [vorinostat] + O=C1NC(=O)/C(=C/c2ccc(-c3ccc(F)cc3O)o2)S1 [AS252424] (first compound 0.08 µM, partner dose 1 µM)",136%,66.1%,105%,147%,93.4%,88%
"C[C@]1(c2nc3c(C(N)=O)cccc3[nH]2)CCCN1 [Veliparib] + COc1cc2c(Oc3ccc4[nH]c(C)cc4c3F)ncnc2cc1OCCCN1CCCC1 [cediranib] (first compound 1.4 µM, partner dose 0.4 µM)",111%,35.3%,99.3%,58.2%,88.3%,139%
"C#Cc1cccc(Nc2ncnc3cc(OCCOC)c(OCCOC)cc23)c1 [erlotinib] + NC(=O)Nc1cc(-c2cccc(F)c2)sc1C(=O)N[C@H]1CCCNC1 [AZD7762] (first compound 0.8 µM, partner dose 0.02 µM)",320%,150%,111%,40.1%,214%,186%
"C=CCn1c(=O)c2cnc(Nc3ccc(N4CCN(C)CC4)cc3)nc2n1-c1cccc(C(C)(C)O)n1 + COc1cc2ncnc(Nc3ccc(Oc4ccccc4)cc3)c2cc1OC [SrcI1] (first compound 0.02 µM, partner dose 2 µM)",274%,37.6%,117%,67.1%,180%,27.1%
"C=CCNC1=C2C[C@@H](C)C[C@H](OC)[C@H](O)[C@@H](C)/C=C(\C)[C@H](OC(N)=O)[C@@H](OC)/C=C\C=C(/C)C(=O)NC(=CC1=O)C2=O [Tanespimycin] + COc1cc2c(Oc3ccc4[nH]c(C)cc4c3F)ncnc2cc1OCCCN1CCCC1 [cediranib] (first compound 0.002 µM, partner dose 0.4 µM)",325%,65.8%,7340%,66.5%,88.2%,114%
"Clc1ccc(Nc2nnc(Cc3ccncc3)c3ccccc23)cc1 [vatalanib] + COc1cc2ncnc(Nc3ccc(Oc4ccccc4)cc3)c2cc1OC [SrcI1] (first compound 2 µM, partner dose 2 µM)",89.9%,56.9%,126%,63.5%,61.2%,29.2%
"OCc1c[nH]c2ccccc12 [Indole-3-carbinol] + Cc1cc(N2CCOCC2)cc2[nH]c(-c3c(NC[C@@H](O)c4cccc(Cl)c4)cc[nH]c3=O)nc12 [BMS536924] (first compound 0.8 µM, partner dose 0.2 µM)",46.6%,34%,96.4%,150%,55.5%,164%
"OCc1c[nH]c2ccccc12 [Indole-3-carbinol] + CCCCCCCCCCCC1=C(O)C(=O)C=C(O)C1=O [Embelin] (first compound 0.8 µM, partner dose 1.2 µM)",49.1%,140%,88.2%,72.7%,88.7%,87.4%
"C=CCNC1=C2C[C@@H](C)C[C@H](OC)[C@H](O)[C@@H](C)/C=C(\C)[C@H](OC(N)=O)[C@@H](OC)/C=C\C=C(/C)C(=O)NC(=CC1=O)C2=O [Tanespimycin] + COCC[n+]1c2c(n(Cc3cnccn3)c1C)C(=O)c1ccccc1C2=O [YM155] (first compound 0.002 µM, partner dose 0.0004 µM)",70.4%,244%,95.7%,69.2%,84.1%,57.4%
"C#Cc1cccc(Nc2ncnc3cc(OCCOC)c(OCCOC)cc23)c1 [erlotinib] + COc1ccc2c(c1)CCC1C2CCC2(C)C(NCCCCCCN3C(=O)C=CC3=O)CCC12 [U73122] (first compound 0.8 µM, partner dose 0.4 µM)",45.8%,131%,116%,66.7%,88.8%,230%

# Quoted from the listing.
# Value of C=CCNC1=C2C[C@@H](C)C[C@H](OC)[C@H](O)[C@@H](C)/C=C(\C)[C@H](OC(N)=O)[C@@H](OC)/C=C\C=C(/C)C(=O)NC(=CC1=O)C2=O [Tanespimycin] + COc1cc2c(Oc3ccc4[nH]c(C)cc4c3F)ncnc2cc1OCCCN1CCCC1 [cediranib] (first compound 0.002 µM, partner dose 0.4 µM) under cleaved PARP positive nuclei fraction [3]: 7340%
# Value of C#Cc1cccc(Nc2ncnc3cc(OCCOC)c(OCCOC)cc23)c1 [erlotinib] + COCC[n+]1c2c(n(Cc3cnccn3)c1C)C(=O)c1ccccc1C2=O [YM155] (first compound 0.8 µM, partner dose 0.0004 µM) under cleaved PARP positive nuclei fraction [4]: 298%
